Patent US20140371152A1
Results are given in words; binding and its absence hold for the method and conditions named. Some binding calls cover weakened binding; strength is not graded here.

target: Amyloid β 1-9 polypeptide corresponding to the N-terminal region of βCTF; assay: polypeptide screening against Amyloid β 1-9

binding, binds:
MNTLICDCYCSLTRCFCYSCVDS (amino terminal acetylated, carboxy terminal amidated) [9-7 polypeptide]
MDTVICDCYCDNYVCFCYSCSHV (amino terminal acetylated, carboxy terminal amidated) [#2 polypeptide]
MLYTSCDCYCDAFSCFCYSCGPY (amino terminal acetylated, carboxy terminal amidated) [#6 polypeptide]
MPLSICDCYCISTICYCYFCVHR (amino terminal acetylated, carboxy terminal amidated) [#9 polypeptide]
MHHVYCDCYCFGPVCYCHSCT (amino terminal acetylated, carboxy terminal amidated) [6-5 polypeptide]
MGLISCDCYCDSTACFCYSCTDF (amino terminal acetylated, carboxy terminal amidated) [#3 polypeptide]
MHLVICDCYCTTDICYCYSCTPN (amino terminal acetylated, carboxy terminal amidated) [#4 polypeptide]
MSIRVCDCYCHGDLCFCYSCINS (amino terminal acetylated, carboxy terminal amidated) [#1 polypeptide]
MRIFDCDCYCYRDICYCYFCTRH (amino terminal acetylated, carboxy terminal amidated) [#7 polypeptide]
MPTVYCDCYCAYNACYCYYCRSD (amino terminal acetylated, carboxy terminal amidated) [#10 polypeptide]
MVPVVCDCYCFLSVCFCYSCYIT (amino terminal acetylated, carboxy terminal amidated) [#5 polypeptide]
MGRVNCDCYCIGHYCYCYYCHNI (amino terminal acetylated, carboxy terminal amidated) [#8 polypeptide]
